Data taken from PubChem BioAssay AID493014 (National Center for Advancing Translational Sciences (NCATS), 2011).
“And” between values parts separate entries of the source, which are not always exact repeats. Identical values can stand only once. The list shows a part of the results. Further columns of the screen follow, without active or inactive calls. The list favours compounds with an active or inconclusive main result. Potencies come from curve fits of mixed quality, noted in brackets.

Test: qHTS Assay to Find Inhibitors of Chronic Active B-Cell Receptor Signaling
Conditions: ABC-DLBCL IkBa-CBG/CBR reporter, luminescence ratio (green luciferase fused to IkBa over red control in TMD8 lymphoma cells), 4 h
Method in brief: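 Concentration-response series (up to 46 uM) were applied to TMD8 dual-reporter cells for 4 h at 37C with doxycycline. Green/red ratio, after filter-overlap correction, defined %Activity; red signal alone was normalised to basal cells and zero luminescence.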

[1] = measured here: CBR red luminescence, cell number
[2] = measured here: IkBa-CBG green luminescence

Row | Compound | AC50 [1] | AC50 [2]
1 | CCCNc1nc(NCC)nc(OC)n1 | 12.6 µM [rising, partial curve] | –
2 | COc1cccc(/C=N/NC(=O)c2cc3c(OC)c(OC)ccc3[nH]2)c1OC | – | 20.6 µM [falling, partial curve, poor fit]
3 | COc1cc(C=O)cc(Br)c1OCC(N)=O | 35.5 µM [falling, single point] | –
4 | CCc1ccc(-n2c(SCc3ccccc3F)nc3[nH]ncc3c2=O)cc1 | 15.8 µM [falling, single point] | –
5 | CC(C)OCCCNC(=O)C1CCC(CNS(=O)(=O)c2ccccc2)CC1 (centres undefined) | 11.6 µM [rising, partial curve, poor fit] | –
6 | COc1cc(OC)cc(-c2nc(-c3ccccc3OC)no2)c1 | 1.84 µM [falling, full curve] | –
7 | N#C/C(=C\c1c(N(Cc2ccccc2)Cc2ccccc2)nc2ccccn2c1=O)C(N)=O | 32.6 µM [falling, partial curve, poor fit] | –
8 | O=C(Nc1cccc(Cl)c1N1CCCC1)c1ccco1 | 10 µM [rising, partial curve, poor fit] | –
9 | Fc1ccc(C2=NN(c3ccccc3)C(c3ccco3)C2)cc1 (centres undefined) | 12.6 µM [rising, partial curve, poor fit] | –
10 | CCC(C)NC(=O)c1ccc2c(Cl)c3c(nc2c1)CCC3 (centres undefined) | 15.8 µM [falling, partial curve, poor fit] | –
11 | C[C@]12C[C@H](O)[C@H]3[C@@H](CCC4=CC(=O)CC[C@@]43C)[C@@H]1CC[C@@H]2C(=O)CO | 0.1 µM [rising, full curve, poor fit] | –
12 | COc1ccc(OC)c(NC(=O)C2CCCN(S(=O)(=O)c3cccc4cccnc34)C2)c1 (centres undefined) | 10 µM [rising, partial curve] | –
13 | C=CCn1c(CNC(=O)c2ccco2)nnc1SCC(=O)c1ccccc1 | 35.5 µM [falling, single point] | –
14 | CC1CCCCN1C(=O)c1cccc(NC2=C(Cl)C(=O)N(Cc3ccccc3)C2=O)c1 (centres undefined) | 25.9 µM [falling, partial curve, poor fit] | –
15 | Cc1ccc(C)c(N(CC(=O)NN=C2CCCCCCC2)S(C)(=O)=O)c1 | 3.16 µM [falling, partial curve, poor fit] | –
16 | CCOC(=O)c1[nH]c2ccc(Br)cc2c1NC(=O)CCN1CCOCC1 | 6.31 µM [rising, partial curve, poor fit] | –
17 | CCOC(=O)c1cc(-c2ccccc2)sc1NC(=O)CSc1nnc(N)s1 | 35.5 µM [rising, single point] | –
18 | Cn1ccc(C(=O)Nc2ccc(Br)cc2Br)n1 | 5.8 µM [rising, partial curve] | –
19 | CC(=O)N1CCN(c2ccccc2NC(=O)c2ccc3ccccc3c2)CC1 | 7.94 µM [falling, single point] | –
20 | CCc1ccc(CCC(=O)Nc2ccc(Br)cc2)o1 | 35.5 µM [rising, single point] | –
21 | COCCNC(=O)CN(C(=O)CCC(=O)Nc1ccccn1)c1ccccc1F | 11.2 µM [falling, partial curve, poor fit] | 12.6 µM [rising, partial curve, poor fit]

Row | Compound | AC50 [1] | AC50 [2]
22 | COc1ccc2c(C)cc(N3CCCCCC3)nc2c1 | 5.01 µM [rising, partial curve, poor fit] | –
23 | Fc1cccc(Nc2nc3ccccc3n3nnnc23)c1 | 20.6 µM [falling, partial curve, poor fit] | –
24 | CCOc1ccc(OCc2cccc(C(=O)N(CC)CC)c2)cc1 | 14.1 µM [falling, single point] | –
25 | COc1cccc(NC(=O)NC2CCCCC2C)c1 (centres undefined) | 14.1 µM [falling, partial curve, poor fit] | –
26 | CN(c1ccccc1)P(=O)(N(C)c1ccccc1)N(C)c1ccccc1 | 17.8 µM [falling, single point] | 22.4 µM [rising, partial curve, poor fit]
27 | Cc1ccc(NC(=O)Cn2c(=O)c(C)nc3ccccc32)cc1 | 17.8 µM [falling, single point] | –
28 | CC(C)Cn1c(SCC(=O)NCc2ccc(Cl)cc2)nnc1-c1cccc(S(=O)(=O)N2CCOCC2)c1 | 35.5 µM [falling, single point] | –
29 | CCOc1ccccc1N1CC(C(=O)NCCc2ccc(S(N)(=O)=O)cc2)CC1=O (centres undefined) | 0.461 µM [rising, partial curve, poor fit] | –
30 | CCC(C)Sc1nc2c(cnn2-c2ccccc2)c(=O)[nH]1 (centres undefined) | 2.31 µM [rising, partial curve] | –
31 | N#Cc1nc(Cc2cccc3ccccc23)oc1NCCN1CCOCC1 | 6.51 µM [falling, full curve, poor fit] | –
32 | Cc1ccsc1C(=O)OCC(=O)NCc1ccc(Cl)cc1 | 0.731 µM [rising, full curve] | –
33 | O=C(N/N=C/c1cn(Cc2ccccc2)c2ccccc12)c1cccnc1 | 8.2 µM [falling, partial curve] | –
34 | CCC(=O)N1CCN(c2ccc(NC(=O)c3ccc([N+](=O)[O-])o3)cc2Cl)CC1 | 22.4 µM [falling, partial curve, poor fit] | –
35 | CC(=O)N1N=C(c2ccc(C)cc2)CC1c1ccco1 (centres undefined) | 17.8 µM [rising, partial curve, poor fit] | –
36 | NC(=O)Nn1c(CCC(=O)O)ccc1-c1ccc(Cl)cc1 | 20 µM [falling, partial curve, poor fit] | –
37 | COC(=O)C1=C(O)/C(=C\c2cc(C)n(-c3ccc(F)cc3)c2C)N=C1C | 11.2 µM [falling, partial curve, poor fit] | –
38 | COc1cc2oc(=O)cc(-c3ccc(-c4ccc(O)cc4)cc3)c2c(OC)c1OC | 2.59 µM [rising, partial curve, poor fit] | –
39 | COc1ccccc1NC(=O)c1c(Nc2ccccc2F)sc(C(=O)Nc2cccc(Cl)c2)c1N | 14.6 µM [falling, partial curve] | 14.6 µM [rising, single point]
40 | COc1ccccc1-c1ccc(SCC(=O)Nc2cc(C)on2)nn1 | 35.5 µM [falling, single point] | 35.5 µM [rising, partial curve, poor fit]
41 | Cc1ccc(/C=C(\C#N)C(=O)Nc2cccc(C)n2)cc1 | 15.8 µM [rising, single point] | –
42 | CC1(C)Cc2ccccc2-c2nnc(SCc3ccccc3)n21 | 0.116 µM [rising, full curve] | –

Row | Compound | AC50 [1] | AC50 [2]
43 | O=C(Nc1ncnc2c1ncn2C1OC(COC(=O)c2ccccc2)C(F)C1O)c1ccccc1 (centres undefined) | 7.08 µM [rising, partial curve, poor fit] | –
44 | CCn1cc(C(=O)OCC(=O)c2ccc(Cl)cc2)c(=O)c2ccc(C)nc21 | 35.5 µM [rising, single point] | –
45 | COc1ccc(C(=O)C2CCCN(C(=O)c3ccc(C(C)=O)s3)C2)c(C)c1 (centres undefined) | 17.8 µM [rising, partial curve, poor fit] | –
46 | Cc1cc(C)nc(NC(=O)c2ccc(COc3ccccc3Cl)cc2)c1 | 7.94 µM [falling, partial curve] | –
47 | Cc1ccn2c(CNCCn3cccn3)c(C(=O)N3CCCCCC3)nc2c1 | 4.47 µM [rising, single point] | –
48 | O=C(/C=C/c1ccccc1Cl)c1ccc(O)cc1 | 15.8 µM [falling, single point] | –
49 | Cc1ccc(/C=C2\SC(=S)N(CCC(=O)NCCCN3CCOCC3)C2=O)cc1 | 35.5 µM [falling, single point] | –
50 | COc1cccc(N=Nc2ccc3ccccc3c2O)c1 | 0.562 µM [rising, full curve, poor fit] | –
51 | CCn1cnc2sc(C)c(C)c2c1=O | 16.4 µM [rising, single point] | 14.6 µM [falling, single point]
52 | Cc1ccc2oc(/N=C(\N)NC(=O)C3CC3)nc2c1 | 7.08 µM [falling, partial curve] | –
53 | COc1ccccc1/C=C1\SC(=S)N(CCC(=O)N2CCCCC2CCO)C1=O (centres undefined) | 6.31 µM [falling, full curve, poor fit] | –
54 | Cn1c(=O)c2c(nc(CN3CCN(CCO)CC3)n2Cc2cccc3ccccc23)n(C)c1=O | 0.461 µM [rising, partial curve, poor fit] | –
55 | CCc1ccc(CCC(=O)Nc2sc3c(c2C#N)CCCC3)o1 | 3.26 µM [rising, full curve] | 20.6 µM [falling, partial curve]
56 | O=C(O)CC(NNC(=O)c1ccccc1)C(=O)Nc1cccc([N+](=O)[O-])c1 (centres undefined) | 10 µM [falling, partial curve] | –
57 | OCCCc1nc2ccccc2n1CCCCOc1ccccc1 | 1.58 µM [rising, full curve, poor fit] and 631 nM [rising, full curve, poor fit] | –
58 | COc1ccc(NC(=S)NN(C)C(=S)Nc2ccc(OC)cc2)cc1 | 23.1 µM [rising, single point] | 23.1 µM [falling, single point]
59 | COc1ccc(-n2c(C)cc(C(=O)CCl)c2C)cc1 | 0.708 µM [falling, full curve, poor fit] | 22.4 µM [falling, single point]
60 | CCCCOC(=O)Nc1ccc(N(C)C)cc1 | 29.1 µM [falling, single point] | –
61 | COc1cc(-c2noc(C)c2C(=O)NCCc2c[nH]c3ccccc23)cc(OC)c1OC | 22.4 µM [falling, single point] | –
